About 9,100 (2.5%) of roughly 360,000 compounds were called active. Inconclusive results, whose numbers are uncertain, are shown with a selection of clear calls. Rule as the data show it: active = max response below about -50%; inconclusive = no clear call, values can overlap the other calls; inactive = above that.
What follows are molecules tested against D(3) dopamine receptor (Homo sapiens) (UniProt P35462) (assay: qHTS of D3 Dopamine Receptor Antagonist: qHTS). Conditions: D3R cells, DiscoveRx beta-arrestin luminescence, antagonist mode; active compounds read low.
Procedure, shortened: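 Cells plated overnight at 1500 cells/well, then exposed to library compounds with dopamine controls for 90 minutes at 37 degrees C. DiscoveRx reagent added for 30–60 minutes at room temperature; luminescence read, quantitative HTS format.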
% is scaled to controls: 0 for no effect and ±100 for the full control effect.

Chains of the proteins cited; added tags and fusions are not shown.
UniProt P35462, whole entry, looked up: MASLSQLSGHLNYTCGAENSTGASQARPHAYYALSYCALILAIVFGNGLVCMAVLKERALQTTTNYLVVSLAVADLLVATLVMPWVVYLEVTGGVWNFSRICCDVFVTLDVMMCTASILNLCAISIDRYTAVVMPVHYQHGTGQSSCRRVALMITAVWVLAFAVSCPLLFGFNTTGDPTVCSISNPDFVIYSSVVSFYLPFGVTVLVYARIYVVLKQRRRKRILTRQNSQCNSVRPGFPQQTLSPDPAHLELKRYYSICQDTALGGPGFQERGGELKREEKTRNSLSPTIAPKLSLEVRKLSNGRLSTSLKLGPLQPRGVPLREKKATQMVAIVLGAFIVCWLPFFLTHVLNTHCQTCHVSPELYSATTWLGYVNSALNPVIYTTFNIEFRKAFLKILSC

SMILES	max response, negative = inhibition
Cc1csc(N/N=C/c2ccc(O)c([N+](=O)[O-])c2)n1	active: -53.7%
C=C(CN(C)C)C(=O)c1cc(OC)c(OC)cc1OC	inconclusive: -37.4%
COC(=O)c1[nH]c2ccc(Cl)cc2c1NC(=O)CN1CCc2cc(OC)c(OC)cc2C1	inconclusive: -34.1%
CCOc1cc(CN2CCSCC2)ccc1O	inconclusive: -41.1%
CC1CCN(C2CCN(S(=O)(=O)c3ccc(F)cc3)CC2)CC1	inactive: -17.1%
CN1CCN(C(=O)C2=C[C@@H](c3csc4ccccc34)C[C@@H](OCc3ccc(CO)cc3)O2)CC1	active: -72.1%
CN(C)Cc1csc(NC(=O)Nc2ccccc2C(C)(C)C)n1	inconclusive: -36.9%
CCOC(=O)c1ccc(/C=C2/C=C(c3ccccc3)N(c3ccc(Cl)c(C(=O)O)c3)C2=O)cc1	inconclusive: -38.1%
O=C(O)C1C2C=CC(C2)C1C(=O)NCc1ccccc1 (stereo not drawn)	inconclusive: -43.9%
CCOc1ccc(OCC)c(NC(=O)CN(C)S(=O)(=O)c2ccc3nc(C)sc3c2)c1	inactive: -0.473%
Clc1ccc(CN2C3=NCCN3c3ccccc32)cc1Cl	inconclusive: -30.6%
O=C(c1ccc(OC2CCN(CCc3ccccc3)CC2)cc1)N1CCCC(O)C1 (stereo not drawn)	inactive: -7.57%
CCc1cc2c(=O)n(-c3ccccc3)c(SCC(=O)O)nc2s1	inconclusive: -36.5%
CCOC(=O)c1nnn(CC(=O)NC(=O)Nc2ccc(F)cc2)c1C(=O)OCC	inactive: 0%
C=CCn1c(-c2oc3nc(-c4ccccc4)cc(-c4ccccc4)c3c2N)n[nH]c1=S	inconclusive: -39.9%
COc1ccc(CNC(=O)CN2C(=O)NC(C)(c3ccc(C(C)(C)C)cc3)C2=O)cc1 (stereo not drawn)	inconclusive: -31.6%
Cc1cc(Br)ccc1OCCCCN1CCCCC1	active: -50.9%
COc1ccc(C(CNC(=O)c2cccc(NS(=O)(=O)c3ccc(Br)cc3)c2)N(C)C)cc1 (stereo not drawn)	active: -78.5%
COC(=O)CNC(=O)C1CCN(c2nc(C)cc(C)n2)CC1	inconclusive: -33.9%
CCc1ccccc1NC(=S)NC1CC2CCC(C1)N2Cc1ccco1 (stereo not drawn)	active: -53.3%
COc1ccc(-c2cc(C(=O)OCC(=O)NC(C)C)c3ccccc3n2)cc1	inactive: -3.97%
CC(C)(C)NS(=O)(=O)c1cccc(S(=O)(=O)c2cccc(S(=O)(=O)NC(C)(C)C)c2)c1	active: -122%
COc1ccc(N2C(=O)CC(N3CCN(C4CCc5ccccc5C4)CC3)C2=O)cc1 (stereo not drawn)	inconclusive: -48.8%
Cc1cc2c(cc1C)NC(c1c(C)n(C)n(-c3ccccc3)c1=O)C1=C(CC(C)(C)CC1=O)N2 (stereo not drawn)	active: -92.9%
O=S(=O)(Nc1nccs1)c1ccc(F)cc1	inactive: -15.5%
CCCCN1C2=C(C(=O)CCC2)C(c2ccc(Cl)c(Cl)c2)C2=C1c1ccccc1C2=O (stereo not drawn)	inconclusive: -35.9%
CC(=O)N1C[C@H]2CON(C)[C@H]2C[C@H]1c1ccccc1Br	inactive: 19%

Some of these compounds in order of count of non-hydrogen atoms, descending.
SMILES	max response, negative = inhibition
CCOC(=O)c1ccc(/C=C2/C=C(c3ccccc3)N(c3ccc(Cl)c(C(=O)O)c3)C2=O)cc1	inconclusive: -38.1%
CCc1ccccc1NC(=S)NC1CC2CCC(C1)N2Cc1ccco1 (stereo not drawn)	active: -53.3%
Cc1cc(Br)ccc1OCCCCN1CCCCC1	active: -50.9%

Later entries.

SMILES	max response, negative = inhibition
CC(C)CCn1nnnc1CN1CCN(c2ccc(F)cc2)CC1	inconclusive: -39.3%
COc1ccc(OC(C)C(=O)NCCC2=CCCCC2)cc1 (stereo not drawn)	inactive: -7.5%
COc1ccc(C2CC(C(F)(F)F)n3nc(C(=O)N(C)Cc4cn(C)nc4C)c(Cl)c3N2)cc1 (stereo not drawn)	inactive: -1.31%
Cc1ccc(C)c(CSc2nnc(-c3cccs3)n2Cc2ccco2)c1	inconclusive: -32.5%
O=C(Cn1cc(S(=O)(=O)N2CCN(c3ccccc3F)CC2)c2ccccc2c1=O)NCCCN1CCCCCC1	inconclusive: -32%
O=S(=O)(NCCc1csc(-c2cccnc2)n1)c1cccc(F)c1	inactive: 4.18%
COc1ccc(S(=O)(=O)Nc2ccc(F)cc2)cc1N(C)S(=O)(=O)c1ccc(Cl)cc1	inactive: 20.2%
COc1ccc(C(=O)N/C(=C\c2cn(S(=O)(=O)N(C)C)c3ccccc23)C(=O)N2CCN(C)CC2)cc1	inconclusive: -43.7%
COc1ccc(-c2nnc(SC(C)C(=O)Nc3nccs3)n2Cc2ccccc2)cc1OC (stereo not drawn)	inconclusive: -33.2%
CN(C(=S)Nc1ccc(Oc2ccccc2)cc1)C1CCCCC1	inconclusive: -38%
O=C(CCCN1CCC(O)(c2cccc(C(F)(F)F)c2)CC1)c1ccc(F)cc1	active: -61.2%
O=C(C[n+]1cc(-c2ccc(Cl)c(Cl)c2)n2c1CCC2)N1c2ccccc2Sc2ccccc21	inactive: 6.91%
Cc1n(N)c2ccccc2[n+]1CC(=O)c1ccccc1	active: -81.8%
c1ccc(CCCNCC2COc3ccccc3O2)cc1 (stereo not drawn)	inconclusive: -49.3%
CNc1sc(C(=O)c2ccc(F)cc2)c(N)c1-c1nc2ccccc2s1	active: -76.1%
COc1cc(C(=O)NCC(c2cccs2)N2CCc3ccccc32)cc(OC)c1OC (stereo not drawn)	inactive: 2.29%
Cc1nc2c(OCc3cc(Cl)cc(Cl)c3)cccn2c1N(C)C(=O)CCC1CCCC1	inconclusive: -37.7%
COc1ccc2[nH]c3c(c2c1)CCN1C(=O)C(CC(=O)NCC24CC5CC(CC(C5)C2)C4)C[C@H](C(=O)N2CCCCC2)[C@@]31C (stereo partly drawn)	inconclusive: -36%
Cc1ccc(NCN2C(=O)C(=O)c3ccccc32)nc1	active: -64.1%
CC1CCCCN1S(=O)(=O)c1ccc2c(c1)CCN2C(=O)C1CC1 (stereo not drawn)	inconclusive: -31.3%
O=C(O)c1ccc(NC(CSCc2ccc(F)cc2)C(=O)O)c([N+](=O)[O-])c1 (stereo not drawn)	inconclusive: -46.8%
CCCN1C2CCCC1CC(NC(=O)Nc1ccc(C(C)C)cc1)C2 (stereo not drawn)	inconclusive: -48.2%
CCOc1cc(NC(=O)c2cccs2)c(OCC)cc1NC(=O)CCC(=O)NCCN1CCOCC1	inconclusive: -31.2%
CCN(CC)S(=O)(=O)c1ccc(NN=C2CCN(C(C)C)CC2)c([N+](=O)[O-])c1	inconclusive: -32.9%
CCn1cc([N+](=O)[O-])c(C(=O)N2N=C(c3ccc(OC)cc3OC)CC2c2ccccc2O)n1 (stereo not drawn)	inconclusive: -32.2%
COc1cccc(CN2CCN(Cc3ccc4cccc(F)c4n3)CC2CCO)c1 (stereo not drawn)	active: -65.2%
